The record followed here is KR20220022226A.

No constants are given. Whether binding was seen depends on the method and setting. Some entries that bind do so weakly or less than the wild type.

For the assay, the target named is T1, IL-33 (human) (UniProt O95760).
T1 sequence: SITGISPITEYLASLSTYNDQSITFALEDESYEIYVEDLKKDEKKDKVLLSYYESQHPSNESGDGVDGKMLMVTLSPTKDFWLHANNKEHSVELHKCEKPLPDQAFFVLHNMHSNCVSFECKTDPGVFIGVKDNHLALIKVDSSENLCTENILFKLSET
Put plainly: immunoblot, C2_2E12 as primary antibody, anti-HA-HRP as secondary.

B1: C2_2E12 (scFv)
scFv: EVQLLESGGGLVQPGGSLRLSCAASGFTFSSYYMSWVRQAPGKGLEWVSAISPGSSNKYYADSVKGRFTISRDNSKNTLYLQMNSLRAEDTAVYYCARLTLSFDYWGQGTPVTVSSGGGGSGGGGSGGGGSQSVLTQPPSASGTPGQRVTISCSGSSSNIGSNDVSWYQQLPGTAPKLLIYADSKRPSGVPDRFSGSKSGTSASLAISGLRSEDEADYYCASWDSSLSAYVFGGGTKLTVLG
Regarding B1, the binding entry was “binds”.
